According to PubChem BioAssay AID2685 (National Center for Advancing Translational Sciences (NCATS), 2010):
The list shows a part of the results. Further columns of the screen follow, without active or inactive calls. Compounds called inactive in the main read-out are mostly missing here. The note in brackets gives the kind of curve behind each potency; many fits are weak.

Assay: qHTS Assay for Lipid Storage Modulators in Drosophila S3 Cells;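 as to cell number change: cells counted by Cell Tracker Red CMTPX staining in the red channel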
Conditions: BODIPY lipid droplet fluorescence, 18-24 h; for cell number change: measured here: cell count max response, cells fed with added oleic acid
Method in brief: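 Laser-scanning cytometry quantifies lipid droplet accumulation (500–530 nm total intensity; droplet/cell object ratio) in oleic acid-fed (400 uM added) Drosophila S3 cells treated with a concentration series. 20 uM Triacsin C defined 100% inhibition.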

[1] = measured here: cell number channel AC50, cells fed with added oleic acid
[2] = measured here: lipid fluorescence (Fed channel) AC50, cells fed with added oleic acid

Row | SMILES | cell number change [%] | AC50 [1] | AC50 [2]
1 | O=C1NC(c2cc(Cl)cc([N+](=O)[O-])c2O)Nc2ccccc21 (configuration not stated) | 8.59 | 0.116 µM [falling, full curve] | 0.092 µM [falling, full curve]
2 | CCOCCCNC(=O)c1ccc(NC(=O)C2=CSCCO2)cc1 | -19.6 |  | 
3 | O=C(c1ccc(Cl)c(S(=O)(=O)N2CCOCC2)c1)N(c1ccccn1)C1CCCCC1 | -1.8 |  | 
4 | COC(=O)C1=C(C)N=c2s/c(=C/c3cccs3)c(=O)n2C1c1ccc(F)cc1 (configuration not stated) | -19.9 |  | 0.58 µM [falling, full curve]
5 | COc1ccc(S(=O)(=O)Nc2ccc(S(=O)(=O)N3CCCCC3)cc2)cc1C | -19.7 |  | 2.59 µM [rising, partial curve]
6 | O=C(NCc1ccccc1)c1cc2ccccc2o1 | 40.3 | 1.46 µM [rising, full curve, poor fit] | 29.1 µM [rising, single point]
7 | O=C(NCCCc1ccccc1)C1CCC(=O)N(CCc2ccc(Cl)cc2)C1 (configuration not stated) | -12.9 | 2.31 µM [rising, partial curve] | 16.4 µM [falling, single point]
8 | c1ccc2c(c1)ncn2Cc1nnc2sc(-c3ccc4c(c3)OCO4)nn12 | -21.8 |  | 
9 | CCc1ccc(/C([O-])=C(/C(=S)NCCN2CCOCC2)[n+]2ccccc2)cc1 | 22.4 |  | 
10 | Cc1ccnc(NC(=O)CNC(=O)c2cccs2)c1 | -14.1 |  | 
11 | O=S(=O)(c1ccc(F)cc1)n1ccc(-c2cnc(-c3ccccc3)s2)n1 | 24.7 |  | 1.84 µM [rising, partial curve]
12 | CCCN(Cc1nc2cc(Cl)ccc2c(=O)[nH]1)C(=O)c1ccc(S(=O)(=O)N2CCCC2)cc1 | -33.7 | 16.4 µM [falling, single point] | 
13 | Cc1ccc(NC(=O)COC(=O)Cc2ccsc2)c(C)c1 |  | 6.51 µM [rising, single point] | 9.2 µM [rising, partial curve]
14 | N#Cc1c(C(F)(F)F)cc(-c2ccc(Cl)c(Cl)c2)nc1SCCN1CCOCC1 | 11.4 |  | 25.9 µM [rising, single point]
15 | Cc1ccc(S(=O)(=O)N2CCN=C2SCc2ccccc2)cc1 | -10.6 |  | 29.1 µM [falling, single point]
16 | CCOC(=O)Cc1csc(SCC(=O)NC2CCS(=O)(=O)C2)n1 (configuration not stated) | -0.376 | 6.51 µM [falling, partial curve, poor fit] | 6.51 µM [falling, partial curve, poor fit]
17 | O=C(COc1ccccc1)NNc1c2ccccc2nc2ccccc12 | -77.2 | 20.6 µM [falling, partial curve] | 
18 | O=c1[nH]c(CN2CCC(c3nc4ccccc4s3)CC2)nc2sc3c(c12)CCC3 | 7.64 |  | 
19 | COc1ccc(C2CC(C(F)(F)F)n3nc(C(=O)NCCN4CCOCC4)cc3N2)cc1 (configuration not stated) | -4.4 |  | 
20 | Cn1c(=O)c2c(nc(NCCO)n2CCCc2ccccc2)n(C)c1=O | -48.6 | 29.1 µM [falling, single point] | 16.4 µM [falling, single point]
21 | CCOn1c(=O)c(-c2ccc(OC)cc2)[n+]([O-])c2ccccc21 | 84.5 | 11.6 µM [rising, partial curve] | 5.17 µM [rising, single point]

Row | SMILES | cell number change [%] | AC50 [1] | AC50 [2]
22 | NC1=NC(=Nc2ccc(Br)cc2)c2ccccc21 | 26.7 |  | 11.6 µM [rising, partial curve]
23 | Cc1nn(CCC(=O)NCc2ccc(N(C)C)cc2)c(=O)c2nn(-c3ccccc3)c(C)c12 | -4.56 |  | 20.6 µM [rising, single point]
24 | Cc1ccc(S(=O)(=O)NNC(=S)Nc2cccc(C)c2C)cc1 | -1.75 |  | 
25 | O=S(=O)(/N=C(/Nc1nc2ccccc2s1)c1ccccc1)c1ccc(F)cc1 | 6.02 |  | 
26 | Cn1c(SCC(=O)O)nc2sc3c(c2c1=O)CCC3 | 26 |  | 0.58 µM [rising, single point]
27 | COc1ccc(N=Nc2nc3cc(Br)c(Br)cc3n2C)c(OC)c1 | -10.8 |  | 
28 | CCn1c2ccccc2c2nnc(SCC(N)=O)nc21 | 82.4 | 5.8 µM [rising, partial curve] | 2.31 µM [rising, partial curve]
29 | O=P(O)(O)c1ccccc1OCCCCCOc1ccccc1P(=O)(O)O | 23.3 |  | 6.51 µM [rising, full curve, poor fit]
30 | CN(c1ccc(OCC(=O)N2CCCC2)cc1)S(=O)(=O)c1ccc(Cl)cc1 | 36.4 | 11.6 µM [rising, partial curve] | 
31 | O=[N+]([O-])c1ccccc1-c1ccc(CN2CCN(c3ccccc3)CC2)o1 | 6.77 | 0.0517 µM [rising, full curve, poor fit] | 
32 | O=C(Cn1ncc(Cl)c(Cl)c1=O)NCC1CCCCC1 | -16.2 |  | 29.1 µM [falling, single point]
33 | CC(C)[C@H](NC(=O)CCn1nnc2ccccc2c1=O)C(=O)O | -14.6 |  | 2.06 µM [rising, partial curve]
34 | O=S(=O)(c1ccc(Cl)cc1)N1CCCC1c1nc2ccccc2s1 (configuration not stated) | 11.2 |  | 
35 | Cc1occc1C(=O)Nc1ccccc1C(=O)O | 7.75 |  | 
36 | Cc1cc(C)cc(NC(=O)C2CCN(c3nccs3)CC2)c1 | -17 |  | 0.731 µM [rising, full curve, poor fit]
37 | CC(C)C[C@H](NC(=O)c1nc[nH]c1C(=O)NCC(=O)OCc1ccccc1)C(=O)OC(C)(C)C | 21.6 |  | 
38 | CC(Cl)C(=O)NC(=O)NC12CC3CC(CC(C3)C1)C2 (configuration not stated) | -31.1 | 14.6 µM [falling, single point] | 13 µM [falling, single point]
39 | CCN1CCc2c(sc3c2c(NCc2ccco2)nc2nnnn23)C1 | -5.29 | 0.731 µM [falling, single point] | 
40 | O=C(Nc1ccccc1C(=O)O)c1cncc(Br)c1 | 16.6 |  | 29.1 µM [falling, single point]
41 | N#C/C(=C/c1ccc(F)cc1)c1nnc(NC(=O)c2ccccc2)s1 | 20.4 |  | 5.17 µM [rising, partial curve, poor fit]

Ordered by length of the SMILES (ascending): some entries from above.
Row | SMILES | cell number change [%] | AC50 [1] | AC50 [2]
24 | Cc1ccc(S(=O)(=O)NNC(=S)Nc2cccc(C)c2C)cc1 | -1.75 |  | 
20 | Cn1c(=O)c2c(nc(NCCO)n2CCCc2ccccc2)n(C)c1=O | -48.6 | 29.1 µM [falling, single point] | 16.4 µM [falling, single point]
11 | O=S(=O)(c1ccc(F)cc1)n1ccc(-c2cnc(-c3ccccc3)s2)n1 | 24.7 |  | 1.84 µM [rising, partial curve]
